The same purity stands for every peptide and may come from a single statement. For some assays here: Strings that start with PEPTIDE1 are HELM notation: dots part the residues, brackets hold end groups and non-standard residues.
Test: general procedure: Fmoc solid-phase peptide synthesis
Details: whole synthesis, reverse HPLC, trifluoroacetic acid salt, head-to-tail ring

Final HPLC purity, more than 95%:
[6-amino-hexanoic acid-GQRETPEGAEAKPWYG]

Test: peptide synthesis
Details: whole synthesis, trifluoroacetic acid salt

Final HPLC purity, more than 95%:
PEPTIDE1{K.G.Q.R.E.T.P.E.G.A.E.A.K.P.W.Y.G}$PEPTIDE1,PEPTIDE1,1:R3-17:R2$$$V2.0, PEPTIDE1{[Ahp].G.Q.R.E.T.P.E.G.A.E.A.K.P.W.Y}$PEPTIDE1,PEPTIDE1,1:R1-16:R2$$$V2.0, PEPTIDE1{[Ava].G.Q.R.E.T.P.E.G.A.E.A.K.P.W.Y.G}$PEPTIDE1,PEPTIDE1,1:R1-17:R2$$$V2.0, PEPTIDE1{[GABA].G.Q.R.E.T.P.E.G.A.E.A.K.P.W.Y.D}$PEPTIDE1,PEPTIDE1,1:R1-17:R3$$$V2.0, PEPTIDE1{[GABA].G.Q.R.E.T.P.E.G.A.E.A.K.P.W.Y.G}$PEPTIDE1,PEPTIDE1,1:R1-17:R2$$$V2.0, PEPTIDE1{[Orn].G.Q.R.E.T.P.E.G.A.E.A.K.P.W.Y.G}$PEPTIDE1,PEPTIDE1,1:R3-17:R2$$$V2.0, PEPTIDE1{[bAla].G.Q.R.E.T.P.E.G.A.E.A.K.P.W.Y.E}$PEPTIDE1,PEPTIDE1,1:R1-17:R3$$$V2.0

Source: US8754049B2 (APEPTICO Forschung und Entwicklung GmbH, priority 2010, dated 2014)
